What all share (assay): DOSY NMR (translational diffusion); peptide alone, 70–120 µM, 100% D2O, 50 mM Tris pH 7.2, 10 °C; Rh by comparison with dioxane; both purified
Assay [1] deals with HPr^9–30 F22A peptide (Streptomyces coelicolor).
Assay [2] deals with HPr^9–30 P18A/I21A/V23A peptide (Streptomyces coelicolor).
For assay [3], the target named is HPr^9–30 wild-type peptide (residues 9-30 of HPr from Streptomyces coelicolor) (Streptomyces coelicolor).
Assay [4] addresses HPr^9–30 I21A peptide (Streptomyces coelicolor).
Assay [5] concerns the target HPr^9–30 P18A peptide (Streptomyces coelicolor).
In assay [6] the target is HPr^9–30 P18A/I21A/F22A/V23A peptide (Streptomyces coelicolor).
In assay [7] the target is HPr^9–30 V23A peptide (Streptomyces coelicolor).

These are yes or no findings as the source states them, for the method shown. For some of these results: Sequences can lack the tags named with a protein.

As to GWAEGLHARPASIAVRAATATG (acetylated at the N-terminus; amidated at the C-terminus) [HPr^9–30 F22A peptide], the binding entry in assay [1] is “no binding (tested: 70 and 120 µM)”.
Regarding GWAEGLHARAASAFARAATATG (acetylated at the N-terminus; amidated at the C-terminus) [HPr^9–30 P18A/I21A/V23A peptide], the binding entry in assay [2] was “no binding (tested: 70 and 120 µM)”.
With GWAEGLHARPASIFVRAATATG (acetylated at the N-terminus; amidated at the C-terminus) [HPr^9–30 wild-type peptide (residues 9-30 of HPr from Streptomyces coelicolor)], the binding result in assay [3] was “no binding (tested: 70 and 120 µM)”.
Consider GWAEGLHARPASAFVRAATATG (acetylated at the N-terminus; amidated at the C-terminus) [HPr^9–30 I21A peptide], for which the binding entry in assay [4] was “no binding (tested: 70 and 120 µM)”.
Turning to GWAEGLHARAASIFVRAATATG (acetylated at the N-terminus; amidated at the C-terminus) [HPr^9–30 P18A peptide], the binding entry in assay [5] is “no binding (tested: 70 and 120 µM)”.
As for GWAEGLHARAASAAARAATATG (acetylated at the N-terminus; amidated at the C-terminus) [HPr^9–30 P18A/I21A/F22A/V23A peptide], in assay [6], the binding result was “no binding (tested: 70 and 120 µM)”.
For the molecule GWAEGLHARPASIFARAATATG (acetylated at the N-terminus; amidated at the C-terminus) [HPr^9–30 V23A peptide], the binding entry in assay [7] is “no binding (tested: 70 and 120 µM)”.

For the origin of these results see article PMC8509676, “Residual Helicity at the Active Site of the Histidine Phosphocarrier, HPr, Modulates Binding Affinity to Its Natural Partners” (International Journal of Molecular Sciences, 2021).
